Laboratory results reported in publication PMC6988918.
These are yes or no findings as the source states them, for the method shown. In cells and extracts the contact can be indirect. A yes stands for co-enrichment or nearness to the bait. Other partners may have been found.

Target: Akt (protein kinase B) (rat (endogenous in rat cardiomyocytes))
Assay: affinity purification with mass spectrometry; Akt precipitated with polyclonal Akt 1/2/3 antibody (sc-8312) and protein A-Sepharose from 1% NP-40 lysates of cardiomyocytes of control and MetS rats stimulated with 100 nM insulin for 10 min; label-free mass spectrometry of the immune complexes

Row | binding | Binder
1 | binds | Solute carrier family 25 member 13 (protein, UniProt F1LZW6 1-676) MAAAKVALTKRADPAELKAIFLKYASIEKNGEFFMSPHDFVTRYLNIFGESQPNPKTVELLSGVVDQTKDGLISFQEFVAFESVLCAPDALFMVAFQLFDKAGKGEVTFEDVRQVFGQTTIHQHIPFNWDSEFVQLHFGKERKRHLTYAEFTQFLLEIQLEHAKQAFVQRDNAKTGKVTAIDFRDIMVTIRPHVLTPFVEECLVAAAGGTRSHQVSFSYFNGFNSLLNNMELIRKIYSTLAGSRKDVEVTKEEFALAAQKFGQVTPMEVDILFQLADLYEPRGRMTLADIERIAPLEEGMLPFNLAEAQRQQKASGDAARPFLLQLAESAYRFGLGSIAGAVGATAVYPIDLVKTRMQNQRSTGSFVGELMYKNSFDCFKKVLRYEGFFGLYRGLLPQLLGVAPEKAIKLTVNDFVRDKFMHKDGSVPLLAEIFAGGCAGGSQVIFTNPLEIVKIRLQVAGEITTGPRVSALSVVRDLGFFGIYKGAKACFLRDIPFSAIYFPCYAHVKASFANEDGQVSPGSLLLAGAIAGMPAASLVTPADVIKTRLQVAARAGQTTYSGVTDCFRKILREEGPKALWKGAGARVFRSSPQFGVTLLTYELLQRWFYVDFGGVKPVGSELVPKSRITLPAPNPDHVGGYKLAVATFAGIENKFGLYLPLFKPSASTSKVTAVGS
2 | binds | Very long-chain specific acyl-CoA dehydrogenase (protein, UniProt P45953 41-655) ASEATQAVLEKPETLSSDASTREKPARAESKSFAVGMFKGQLTTDQVFPYPSVLNEGQTQFLKELVGPVARFFEEVNDPAKNDSLEKVEEDTLQGLKELGAFGLQVPSELGGLGLSNTQYARLAEIVGMHDLGVSVTLGAHQSIGFKGILLYGTKAQKEKYLPRVASGQALAAFCLTEPSSGSDVASIRSSAVPSPCGKYYTLNGSKIWISNGGLADIFTVFAKTPIKDAATGAVKEKITAFVVERSFGGVTHGLPEKKMGIKASNTSEVYFDGVKVPAENVLGEVGDGFKVAVNILNNGRFGMAATLAGTMKAIIAKAVDHATNRTQFGDKIHNFGVIQEKLARMAILQYVTESMAYMLSANMDQGFKDFQIEAAISKIFGSEAAWKVTDECIQIMGGMGFMKEPGVERVLRDIRIFRIFEGTNDILRLFVALQGCMDKGKELTGLGNALKNPLGNVGLLIGEASKQLRRRTGIGSGLSLSGIVHPELSRSGELAVQALEQFATVVEAKLMKHKKGIVNEQFLLQRLADGAIDLYAMVVVLSRASRSLSEGYPTAQHEKMLCDSWCIEAATRIRENMASLQSNPQQQELFRNFRSISKAMVENGGLVTSNPLRV
3 | binds | SFI1 centrin-binding protein (protein, UniProt D3ZTG6 1-1209) MEKKIGFRSFRDGVVKKPCSPKALPLKKSSAFSGIQRELTRSCHSSYYQSSQSWTPQRLRELRVRCVARKFLYLWMRVTFGRVTPSRARFFHEQKILRKVFGEWREEWWVSQREWKLCVRADCHYRYYLYNLIFQNWKSFVYQQREMRKRFQRAEHHDMKQKMRHAWKSWLIYMVARRTKFRMKSTALEFRRRSVLCFWWNKWRWRLGRVHAEQALHAAAVKHRALSLQLQAWLRWQEQLLISQRERRKVATAVRHHQRWQKQRTLKAWLKYLRICRVKRWQNEMAVQFHRITVLQIHFCDWQWAWEWRQSLSAHQALVAKLARKMVLRRAFAHWKHYMLLQEEEAAQREAAAEHHQHCLLHSCFRAFKDNVTRARLKRMRKSLAHQLRDTTLLHRFWNLWQSRVEQREERVQPPSLLAAQSHYRMTVLRKCVRVWLQYVHKRRCLQSLQARALGHFQQRALPAAFYTWYRVWRWHQQRRTLHTRAVRFHREALEKQVFALWRQKVSQHREIRLAERMAMLQAEQQLLRRFWFVWHQRAAACHQERQRQAMAIAHHHSGLLRRAFCIWRESTQGFRMERMGRAQASHFHSVRLLCWAWSKWREGLALRMEEQQKLKRAALHSQRTLLHRALQKWLVYQDRMRSVLQEVAARERQHNRQLLWWVLHRWRENTMARLDGAKKTSQARVHYNRTLCSKVLVQWREVTSVKIYYRQKEAAALREARKALDRGRLRTWLQRWQVCRQREAQQTFRLQQAAQHHRRQLLAGAMARWKAYHLCCVRKKFLQRQAAQLLAQRLGRACFCQWRKQLAVRKQEQWGTARALWFWAFSLQAKVWAAWLGFVLEKRRKKARLEQAMQAYHQQLLQEGATRLLRFTAGMKALRQQLQAQQQVQAAHSLHCAVRHCAELWKKKVLGPDKTSQPPAPIAFSRRVTFKDFSLSGLAAEAGDAPLSQGVLGSLAVAAGEPFIPELNEARPSRKQPRRPSFLLERVQSQRSPERCTLGEQQLQKTPEKGQSMAPPGGSSLTRPFLPVVRPNVSGPKLPPTASPGLELLPPSSFMPHGVRDAARVSTKPSISGPQPWGCPSLTRDPDPHLLLPGDSTSTRTGPGYGSETTGHTELEAELEGIQQQLQHYQTTKQNLWSCQRQANSLRRWLELSQEEPSCEDLHLEEQVKTELEEVELQIQQLAKELEAQRQPVGTCIARVRALRRALC
